{
  "source": "patent US20210000933A1",
  "about": "“TUMOR VACCINE” (CELL-MEDICINE, INC., priority 2019, published 2021)",
  "origin": "cited, not measured here",
  "test_system": "glioblastoma",
  "conditions": "Stupp regimen, radiation irradiation and TMZ after surgical resection",
  "note": "For at least one compound, name, drawing or mass did not settle the structure.",
  "data": [
    {"smiles": "Cn1nnc2c(C(N)=O)ncn2c1=O", "note": "[TMZ, temozolomide]", "values": [
      {"measurement": "median overall survival (mOS)", "result": 14.6, "unit": "months"},
      {"measurement": "median progression-free survival (mPFS)", "result": 6.9, "unit": "months"},
      {"measurement": "two-year survival rate", "result": 26.5, "unit": "%"}
    ]}
  ]
}
